Here are results for 66 molecules from PubChem BioAssay AID662 (National Center for Advancing Translational Sciences (NCATS), 2007).

The structures appear in SMILES notation. The list shows a part of the results. These are further read-outs of the screen, such as a control signal, another cell line or another target. No call is given for them. Compounds called inactive in the main read-out are mostly missing here. Potencies come from curve fits of mixed quality, noted in brackets.

The experiment in a line: Cell signaling CRE-BLA (Fsk stim). The conditions noted are these: CHO CRE-bla reporter (cAMP response element driving beta-lactamase), forskolin EC10, beta-lactamase ratio; measured here: 460 nm blue channel. In outline: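 Forskolin analogue NKH 477 at EC10 stimulated CRE-driven beta-lactamase in CHO cells alongside compound dilution series. Beta-lactamase was measured with CCF4, excitation 405 nm, emission ratio 460/530 nm.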
The AC50 is the concentration at which the activity in the assay is half-maximal. In the case of `Cc1nnc(SCC(=O)NC(C)(C)C)n1CCc1ccccc1`, the AC50 was 5.01 µM [falling, single point]. As for `O=c1c(-c2ccc(Cl)cc2)nc2cnc(N3CCOCC3)nc2n1C1CC1`, the figure is 15.8 µM [rising, partial curve]; as for `COc1ccc(C(=O)Nc2ccc(Cl)cc2C(=O)NCc2ccco2)cc1OC`, 12.6 µM [rising, single point]. Under `O=C(CSc1nc2c(c(=O)n1-c1ccc(Cl)cc1)SCC2)Nc1ccc2c(c1)OCCO2` stands 10 µM [falling, single point]. As to `CC(C)CCNC(=O)NC(=O)CSc1nnc(-c2ccccc2F)n1N`, the AC50 was 5.01 µM [falling, single point]. As for `CCCN1Cc2cccc(C(=O)Nc3ccc(N4CCN(CC)CC4)cc3)c2C1=O`, the figure is 3.98 µM [rising, single point]. Consider `Cc1ccc(OCCN2CCN(C(=O)CCC(=O)Nc3nnc(C)s3)CC2)cc1`, for which the AC50 was 10 µM [rising, partial curve]. For `Cn1c(C(=O)NCCCN2CCN(c3ccccc3F)CC2)cc2c(=O)n(C)c3ccccc3c21`, the AC50 is 3.16 µM [rising, full curve]. With `COc1ccc(-n2c(=O)cc(N3CCCCCC3)[nH]c2=O)cc1`, the AC50 was 25.1 µM [rising, single point]. As for `CCS(=O)(=O)N1CCC(C(=O)NCCCN2CCC(Cc3ccccc3)CC2)CC1`, the figure is 0.00794 µM [falling, full curve, poor fit]; as for `CCOC(=O)c1sc2ncn(C(CC)C(=O)OCC)c(=O)c2c1C` (stereo unspecified), 15.8 µM [rising, single point]. Turning to `COc1ccc(Cn2nnnc2C(CC(C)C)N2CCN(c3ccccc3)CC2)cc1` (stereo unspecified), the AC50 was 0.00316 µM [falling, full curve, poor fit].

With `Cc1c(C)c2cc(Cl)c(O)c(CN(C)C)c2oc1=O`, the AC50 was 10 µM [rising, partial curve]. Under `COC(=O)c1cn(NC(=O)C2CCCO2)c(=O)c2ccccc12` (stereo unspecified) stands 6.31 µM [falling, partial curve]; under `CCC1CCCCN1Cc1nc2c(c(=O)n(C)c(=O)n2C)n1CCC(C)C` (stereo unspecified), 15.8 µM [rising, partial curve]; under `COc1ccc(CCn2c(N)cc(=O)[nH]c2=S)cc1OC`, 12.6 µM [rising, partial curve]. As for `CCOC(=O)N1CCN(C(=O)c2ccc3c(=O)n(Cc4ccccc4)c(=S)[nH]c3c2)CC1`, the figure is 1 µM [falling, partial curve]; as for `CCNc1ncc2nc(C)c(=O)n(Cc3cccs3)c2n1`, 12.6 µM [rising, partial curve]. Under `COc1ccc(S(=O)(=O)N2C3CCC2CC(NC(=O)C2CC2)C3)cc1` (stereo unspecified) stands 2.51 µM [falling, partial curve, poor fit]; under `Fc1ccc2c(c1)[C@H]1OCC[C@H]1[C@@H](c1ccco1)N2`, 15.8 µM [rising, single point].

For `Nc1cc2c(nc3c4ccccc4c(N)cc3[n+]2-c2cccc3ccccc23)c2ccccc12` (tested in a mixture with another compound), the AC50 was 0.002 µM [falling, full curve, poor fit].

With `COc1ccc2c(=O)c3c(=O)n(Cc4ccco4)c(-c4cc(OC)c(OC)c(OC)c4)nc3oc2c1`, the AC50 was 2.51 µM [rising, partial curve]. Consider `CCOc1ccc(N(CC(=O)NC(C)(C)C)C(=O)c2ccco2)cc1`, for which the AC50 was 0.126 µM [falling, full curve, poor fit].

In the case of `COc1cc(/C=C\C(=O)N2CCC=CC2=O)cc(OC)c1OC`, the AC50 was 7.94 µM [falling, partial curve]. With `COCCCNC(=O)C1CCN(C(=O)c2cc3sccc3n2Cc2ccc(F)cc2)CC1`, the AC50 is 0.251 µM [rising, single point]. Under `CCc1nc(N2CCCCC2)c2oc3ccccc3c2n1` stands 10 µM [rising, partial curve]; under `CCOC(=O)C1=C(C)NC2=C(C(=O)CCC2)C1c1cccnc1` (stereo unspecified), 25.1 µM [rising, single point].

For the molecule `COc1ccc(NC(=O)c2ccc3c(=O)n(Cc4ccco4)c(=S)[nH]c3c2)c(OC)c1`, the AC50 was 25.1 µM [rising, single point]. Consider `Cc1ccc2nc(Nc3ncc4c(n3)CCCC4=O)nc(C)c2c1`, for which the AC50 was 1.26 µM [rising, full curve]. On to `C=CCSc1nc(N)c(C#N)c(-c2ccccc2)c1C#N`, for which the AC50 is 2 µM [rising, partial curve]. As for `CCN(CC)CCNC(=O)c1c(O)c2c([nH]c1=O)CCCC2`, the figure is 25.1 µM [falling, single point]; as for `Cc1cc(=S)n(-c2ccccc2)n1C`, 0.631 µM [rising, full curve]. Under `Clc1ccccc1-c1cc(NCc2ccccc2)ncn1` stands 3.98 µM [rising, full curve]. Under `CCN1CCN(C(=O)c2ccc3c(=O)n(CCC4=CCCCC4)c(=O)[nH]c3c2)CC1` stands 25.1 µM [falling, single point]; under `O=C(COc1ncnc2ccccc12)c1ccc2c(c1)OCCO2`, 0.126 µM [falling, full curve, poor fit]. Turning to `COC(=O)Cc1ccc(NC(=O)c2ccc(Br)o2)cc1`, the AC50 was 0.0794 µM [rising, full curve, poor fit]. As for `CN(C)CCNc1oc(COc2ccc(-c3ccccc3)cc2)nc1C#N`, the figure is 15.8 µM [rising, single point]; as for `O=C(c1ccccc1)[C@@H]1O[C@H]1c1ccc(-c2ccccc2)cc1`, 25.1 µM [falling, partial curve]; as for `COc1ccc(C(=O)NC(C)c2nc3ccccc3n2C)cc1OC` (stereo unspecified), 25.1 µM [rising, single point]. Under `CCOC(=O)c1c(CN(C)C)oc2cc(CN(C)C)c(O)c(CSc3ccccc3)c12` stands 7.94 µM [falling, partial curve]. As for `Cc1nc2ncnn2c(C)c1CCC(=O)NCc1ccco1`, the figure is 0.00398 µM [falling, full curve, poor fit]; as for `O=c1c2ccccc2oc2nc(C3CCCCC3)n(Cc3ccco3)c(=O)c12`, 1.26 µM [rising, partial curve]. Consider `O=C(CSc1nnc2c(Cl)cc(Cl)cn12)N1CCN(S(=O)(=O)c2ccccc2)CC1`, for which the half-maximal activity concentration (AC50) is 12.6 µM [falling, partial curve, poor fit].

`O=C(COC(=O)c1ccccn1)c1ccc(Br)cc1`: the AC50 was 1 µM [rising, single point]. In the case of `Cn1c(=O)n(CCc2ccccc2)c(=O)c2c1nc1n2CCCN1c1ccccc1`, the AC50 is 6.31 µM [falling, full curve]. As for `COc1ccccc1C1C(C#N)=C(N)Oc2cc(C)n(CCCn3ccnc3)c(=O)c21` (stereo unspecified), the figure is 0.01 µM [falling, full curve, poor fit]. Under `CCOc1cc(C)c(C(C)C)cc1S(=O)(=O)N1CCOCC1` stands 12.6 µM [rising, single point]; under `COc1ccc(-n2c(=O)c(C)nc3cnc(Nc4cccc(OC)c4)nc32)cc1`, 15.8 µM [rising, partial curve]. Under `CCNc1ncc2nc(-c3cc(F)cc(F)c3)c(=O)n(Cc3ccc(F)cc3)c2n1` stands 3.98 µM [rising, partial curve]. For `COc1cccc(Cn2c(=O)c(C)nc3cnc(N4CCN(C)CC4)nc32)c1`, the AC50 is 2 µM [rising, partial curve]. As for `COc1cc(C(=O)OCCN2CCOCC2)cc(OC)c1OC`, the figure is 10 µM [rising, single point]; as for `CCNC(=O)c1cc2c(=O)n3cccc(C)c3nc2n1C`, 15.8 µM [rising, partial curve].

Consider `Cc1ccc2nc(SC(C)C(=O)N3CCCC3)[nH]c2c1` (stereo unspecified), for which the AC50 was 25.1 µM [rising, single point]. As for `O=C(O)CCSCc1ccccc1`, the figure is 0.0794 µM [rising, single point].

In the case of `O=C(O)CCc1ccc(-c2ccc(Br)cc2)o1`, the AC50 was 31.6 µM [falling, single point]. As for `CCC(C)NC(=O)CC(NS(=O)(=O)c1ccc(Cl)cc1)c1ccco1` (stereo unspecified), the figure is 10 µM [falling, partial curve]. On to `COc1ccc(NC(=O)C2C3C=CC4(CN(Cc5cccnc5)C(=O)C24)O3)c(OC)c1` (stereo unspecified), for which the AC50 is 0.316 µM [falling, partial curve, poor fit]. As for `CCC(=O)N1CCc2cc(S(=O)(=O)NCCC(=O)N3CCN(Cc4ccccc4)CC3)ccc21`, the figure is 25.1 µM [rising, single point]; as for `COC(=O)[C@@]1(Cc2ccc(OC)cc2)[C@H]2c3cc(C(=O)N(C)C)n(CCF)c3C[C@H]2CN1C(=O)c1ccccc1`, 12.6 µM [rising, partial curve]; as for `CC(C)(C#N)N([O-])C=C[N+](=O)C(C)(C)C#N`, 0.00316 µM [falling, full curve, poor fit]. Regarding `C=C(C)COc1ccc2c3c(c(=O)oc2c1OCC(=C)C)CCC3`, the AC50 is 12.6 µM [rising, single point]. Consider `COc1ccc2c(c1)C(=O)N(c1ccccc1OC)C(=O)C2`, for which the AC50 was 20 µM [falling, single point]. As for `NS(=O)(=O)c1ccc(NC2(C(=O)O)CCCC2)cc1`, the AC50 is 5.01 µM [falling, single point]. Under `Cc1cccc([C@@H]2CN(C)CCc3c2cc(O)c(O)c3Cl)c1` stands 12.6 µM [falling, partial curve, poor fit]; under `N#CCCn1c(=O)c(-c2cccs2)nc2cnc(Oc3cccc(Cl)c3)nc21`, 3.98 µM [rising, full curve]. As for `CCCOc1ccc(-c2nnn(CC(=O)Nc3cccc(C(=O)OC)c3)n2)cc1`, the figure is 3.98 µM [rising, single point].
